Screening data, single-dose tests

Chains of the proteins cited; added tags and fusions are not shown.
UniProt P9WPC5, whole entry: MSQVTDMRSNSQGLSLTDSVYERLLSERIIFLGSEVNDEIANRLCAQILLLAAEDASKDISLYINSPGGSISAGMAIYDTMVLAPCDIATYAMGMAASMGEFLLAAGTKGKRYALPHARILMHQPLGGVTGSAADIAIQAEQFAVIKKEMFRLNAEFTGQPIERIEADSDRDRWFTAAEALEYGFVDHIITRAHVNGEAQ
UniProt P9WPC3, whole entry partner: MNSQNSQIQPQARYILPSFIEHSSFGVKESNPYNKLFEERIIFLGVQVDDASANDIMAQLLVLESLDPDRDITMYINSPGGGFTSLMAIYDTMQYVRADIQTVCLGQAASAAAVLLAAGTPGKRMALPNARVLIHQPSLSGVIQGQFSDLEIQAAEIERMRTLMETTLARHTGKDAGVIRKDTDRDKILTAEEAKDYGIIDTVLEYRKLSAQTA
UniProt I6X8D2, whole entry: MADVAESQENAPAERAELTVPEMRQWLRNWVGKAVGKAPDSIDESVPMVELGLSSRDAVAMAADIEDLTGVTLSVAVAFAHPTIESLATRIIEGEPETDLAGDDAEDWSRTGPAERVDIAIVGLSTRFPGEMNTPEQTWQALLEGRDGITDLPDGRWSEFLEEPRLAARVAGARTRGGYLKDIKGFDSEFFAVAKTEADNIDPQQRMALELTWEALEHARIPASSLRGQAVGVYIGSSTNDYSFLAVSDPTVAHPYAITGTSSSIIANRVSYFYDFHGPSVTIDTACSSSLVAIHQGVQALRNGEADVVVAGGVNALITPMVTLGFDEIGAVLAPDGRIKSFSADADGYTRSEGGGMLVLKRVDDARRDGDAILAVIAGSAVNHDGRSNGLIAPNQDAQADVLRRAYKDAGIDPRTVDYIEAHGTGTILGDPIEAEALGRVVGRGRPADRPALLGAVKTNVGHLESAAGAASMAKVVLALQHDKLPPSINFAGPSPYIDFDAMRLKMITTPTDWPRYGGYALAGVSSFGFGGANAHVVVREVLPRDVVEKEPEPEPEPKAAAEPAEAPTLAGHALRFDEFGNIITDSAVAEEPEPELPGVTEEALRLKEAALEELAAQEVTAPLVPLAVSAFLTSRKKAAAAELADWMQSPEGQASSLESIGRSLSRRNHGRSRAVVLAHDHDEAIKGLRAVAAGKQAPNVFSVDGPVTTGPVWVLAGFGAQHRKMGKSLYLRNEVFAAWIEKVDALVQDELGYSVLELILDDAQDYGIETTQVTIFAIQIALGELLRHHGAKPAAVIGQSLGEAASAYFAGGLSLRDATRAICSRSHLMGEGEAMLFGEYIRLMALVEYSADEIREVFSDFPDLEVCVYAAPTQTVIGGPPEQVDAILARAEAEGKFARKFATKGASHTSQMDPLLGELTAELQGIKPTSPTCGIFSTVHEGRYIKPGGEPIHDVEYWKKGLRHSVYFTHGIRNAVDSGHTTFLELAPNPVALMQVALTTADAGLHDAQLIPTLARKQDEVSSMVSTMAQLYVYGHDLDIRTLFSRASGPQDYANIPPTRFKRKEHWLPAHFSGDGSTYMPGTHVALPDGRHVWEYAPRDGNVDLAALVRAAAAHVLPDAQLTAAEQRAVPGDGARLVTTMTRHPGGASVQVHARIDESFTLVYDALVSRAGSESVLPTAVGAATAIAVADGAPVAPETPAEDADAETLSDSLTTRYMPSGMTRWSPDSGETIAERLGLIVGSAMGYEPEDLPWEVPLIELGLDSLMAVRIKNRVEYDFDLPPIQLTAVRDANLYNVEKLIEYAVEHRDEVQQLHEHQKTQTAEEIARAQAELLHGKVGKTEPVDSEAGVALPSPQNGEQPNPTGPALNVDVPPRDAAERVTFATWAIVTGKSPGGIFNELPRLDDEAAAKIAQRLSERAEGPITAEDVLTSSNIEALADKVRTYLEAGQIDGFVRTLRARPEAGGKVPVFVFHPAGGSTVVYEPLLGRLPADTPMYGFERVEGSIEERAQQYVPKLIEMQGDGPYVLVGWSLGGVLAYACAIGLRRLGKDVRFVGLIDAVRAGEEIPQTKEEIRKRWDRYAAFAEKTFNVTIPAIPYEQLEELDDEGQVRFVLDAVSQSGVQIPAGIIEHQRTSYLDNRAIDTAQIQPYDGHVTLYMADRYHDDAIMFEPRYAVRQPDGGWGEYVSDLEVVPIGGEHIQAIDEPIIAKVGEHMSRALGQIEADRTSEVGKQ
UniProt P9WFT3, whole entry: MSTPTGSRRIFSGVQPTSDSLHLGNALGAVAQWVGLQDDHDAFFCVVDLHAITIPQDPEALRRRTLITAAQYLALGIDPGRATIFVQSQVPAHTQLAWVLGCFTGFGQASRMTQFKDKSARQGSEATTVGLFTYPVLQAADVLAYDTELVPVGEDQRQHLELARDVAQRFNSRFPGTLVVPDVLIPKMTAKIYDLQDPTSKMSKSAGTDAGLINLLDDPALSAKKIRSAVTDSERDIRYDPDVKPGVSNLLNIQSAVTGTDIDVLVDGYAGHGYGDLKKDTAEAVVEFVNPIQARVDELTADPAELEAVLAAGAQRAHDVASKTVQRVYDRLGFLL

Data taken from ChEMBL document CHEMBL3988442, “University of Dundee, Small-Polar-MMV Screening Library” (2021).

A: 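Protease assay of ClpP1P2, read by the AMC dye that it sets free. Target: ClpP1P2, Mycobacterium tuberculosis (UniProt P9WPC5 and UniProt P9WPC3). Concentration: 50 µM. Direction is inferred from only a few compounds that gave an IC50; most scored high, so higher reads as stronger inhibition. Most other retested compounds had strongly negative values. Size under these conditions: about 69,000 compounds, about 10 of them at 50% or above in at least one test.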
B: 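Polyketide synthase Pks13, Mycobacterium tuberculosis (UniProt I6X8D2). Enzyme assay of the thioesterase domain of polyketide synthase 13; the read-out is not stated. Compounds at 30 µM. Higher reads as stronger inhibition (inferred from which compounds were picked for retests). About 67,000 compounds were tested under these conditions; 0.46% (about 300) showed 50% or more at least once.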
C: 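Enzyme assay of tryptophanyl-tRNA synthetase; the read-out is not stated. Target: Tryptophan-tRNA ligase, Mycobacterium tuberculosis (UniProt P9WFT3). Tested at 10 µM. Direction is not recorded; retested compounds ran higher, which suggests that high means inhibition. Size under these conditions: about 65,000 compounds, about 64 of them at 50% or above in at least one test.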

Each number is a percent effect as filed. The record does not define 0% and 100%; most values in the screen are far below 50% and negative numbers occur (in some assays of this library far below -100). Compounds were drawn at random from those tested, without regard to their results. A dash means the value is not listed here; it may have been measured.

structure,A,B,C
Cc1cc(C)n(CCCN(C)c2cc(C3CC3)ncn2)n1,3.794,-23.75,0.07128
Cc1oc(-c2ccccc2)nc1C(=O)NC1=NCCS1,-0.613,-41.09,-3.815
Cc1ccc(C(=O)N2CCC3(CC2)CC(N2CCCC2)C3)cc1,4.18,-11.36,-1.756
CN1CCOC(C(=O)N2CCC3(CCCC3)CC2)C1 (configuration not stated),-3.067,-34.33,0.867
O=C(O)c1cc2c(nc1-c1ccoc1)CCN(CC1CCOC1)CC2 (configuration not stated),-14.14,-8.2,-10.45
Cn1ccnc1C(=O)N1C[C@@H]2CCN(c3cnccn3)C[C@@H]2C1,9.918,124,2.698
CCn1ccnc1CN1CCN(Cc2cccc(C#N)c2)CC1,-20.72,-20.69,22.02
CC(Cn1cc(Br)cn1)C(=O)Nc1ccc(Br)cn1 (configuration not stated),-3.432,-8.277,4.014
CC(C)c1nnc(NCc2cc3n(n2)CCNC3)s1,7.192,-9.41,1.729
COC(C)(C)C(=O)N1CCC(c2cc(CN(C)C)n(C)n2)CC1,-4.298,3.172,-3.017
Cc1cc2cccc(NC(=O)N3CCC(N4CCSCC4)CC3)c2o1,9.614,-12.82,3.344
CCOCCCC(=O)NCc1cn2cc(Br)ccc2n1,-3.173,-29.56,-2.86
Cn1nnnc1SCCC(=O)NCC(C)(C)c1ccccc1F,8.669,-14.23,-2.017
CC(C)(N)c1cn(C2CCN(C3CCSCC3)CC2)nn1,-9.104,-35.69,-0.7843
O=C(CN1CCC(c2ccccc2)C1)NCC(F)(F)F (configuration not stated),-37.97,-4.048,-7.345
Cc1nccc(N2CCCC(C)(C(=O)NC3CCCC3)C2)n1 (configuration not stated),10.13,-11.98,6.902
CCNC(=O)C1CCN(c2nccc(C3CCCC3)n2)C1 (configuration not stated),1.402,-0.1708,-1.636
Cc1cc(C(=O)N[C@H]2CN(CCC(N)=O)C[C@@H]2C2CC2)sc1C,-15.58,7.346,6.338
c1ccc(Cc2nc(CNCCn3cccn3)cs2)cc1,-9.993,-10.74,4.417
O=C(C[C@@H]1COC[C@H]2CN(C(=O)c3ccccn3)C[C@@H]12)N1CCCC1,1.596,1.943,9.011
Cc1cccnc1CNCC1(O)CCCN(CC2CCC2)C1=O (configuration not stated),-31.8,-91.53,-0.9684
CNCC(=O)N1CCCC1c1nc(C(C)C)no1 (configuration not stated),-4.031,-18.92,-0.8081
O=C(c1ccccn1)N1CCc2c(nc(N3CCCC3)[nH]c2=O)C1,2.767,-18.32,4.431
CSc1cccc(CNC(=O)C2CC(=O)N(C3CC3)C2)c1 (configuration not stated),-1.712,-32.72,3.961
O=C(O)c1csc(S(=O)(=O)N2CCCc3cccc(OC(F)F)c32)c1,-27.41,-28.89,0.2973
CCN1CCCC(O)(CN(C)Cc2ccc(C)o2)C1 (configuration not stated),16.51,-14.61,-1.387
O=C1OCCN1CCNC(=O)C1(N2CCCCC2)Cc2ccccc2C1,-9.897,-26.86,-4.549
CCc1noc(CN2CCC(c3ccnn3CCO)CC2)n1,-27.54,1.297,0.2596
Cc1nc(CNC(=O)NCC(O)c2ccc(F)cc2)cs1 (configuration not stated),-7.632,-5.273,-7.615
CC(C)c1nc(C2CCCN2C(=O)c2ccc(C#N)cn2)no1 (configuration not stated),-10.56,-22.83,1.161
OC1(CN2CCc3nnc(Cc4cccnc4)n3CC2)CCCNC1 (configuration not stated),1.886,-8.867,-1.732
Cc1cc(C)nc(N2CCN(Cc3nccn3C)CC2)n1,9.54,-12.02,-
COc1ncc(-c2cc(NC3CCCC3)nc3[nH]ccc23)c(OC)n1,-28.67,30.07,-2.855
CC(=O)N1CCC(c2ccnc(Nc3cc(C(F)(F)F)ccn3)n2)C1 (configuration not stated),20.42,-,4.762
Cc1cc(C(=O)N2CCCC(n3cncn3)C2)no1 (configuration not stated),-27.3,-14.68,0.9358
Fc1cnc(N2CCCC3(CN(Cc4ccncc4)CCO3)C2)nc1 (configuration not stated),9.067,-24.52,-0.3524